Test results as given in the supplement of paper PMC12889115.
The list shows a part of the results. Values are raw readings; no control value is given beside them.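 In the initial screen, polymyxin B was used at a concentration that permeabilizes Salmonella's outer membrane but not its inner membrane. Maximum growth was set by DMSO wells with or without polymyxin B. Since plates varied, data were ranked per plate, and compounds giving the lowest OD600 advanced as hits.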

Test system: Salmonella enterica serovar Typhimurium SL1344
Assay: bacterial growth OD600 after 18 h with compound and polymyxin B; higher = more bacterial growth (less inhibition)
Conditions: 50 µM, Mueller-Hinton broth

| Compound | bacterial growth OD600 (polymyxin B 1 µg/mL) | bacterial growth OD600 (polymyxin B 0.75 µg/mL) |
| --- | --- | --- |
| COC(=O)c1ccc(N2C[C@H]3OC(=O)N(Cc4ccccn4)[C@H]3C2)nc1 | 1.08 |  |
| O=C(NC1CCCC1)c1ccc(OC2CCN(C(=O)c3cccnc3)CC2)c(Cl)c1 | 1.1 |  |
| CCn1ncc(CN(C)CC2CCN(CCc3cccc(F)c3)CC2)c1C | 1.1 |  |
| COCCNC(=O)CCC1CCN(Cc2nc3ccccc3n2C)CC1 | 0.888 |  |
| COCCC(=O)N1CCC(Oc2ccc(C(=O)N(C)CCOC)cc2)CC1 |  | 0.974 |
| COCCN(Cc1ccccn1)C(Cc1ccccc1)C1CCN(Cc2ccc3nccnc3c2)CC1 (stereo unspecified) |  | 0.776 |
| COCCC(=O)NC1CCCN(CCc2ccccc2)C1 (stereo unspecified) | 1.23 |  |
| COCC1CCN(C(=O)CC2(c3ccccc3)CC(=O)N(CCCOc3cccnc3)C2=O)CC1 (stereo unspecified) |  | 0.795 |
| CCOC(=O)C1(Cc2ccccc2C)CCCN(Cc2cnc(N3CCOCC3)s2)C1 (stereo unspecified) | 0.904 |  |
| COc1ccc(CNC(=O)CCC2CCCN(C/C=C/c3ccco3)C2)c(OC)c1 (stereo unspecified) |  | 0.832 |
| O=C(C(c1ccccc1)c1ccccc1)N1CCOc2c(cc(-c3cccnc3)cc2OCCc2cccs2)C1 |  | 0.074 |
| O=C(NCCc1cccnc1)c1coc(COc2cccc(F)c2F)n1 |  | 0.815 |
| O=C(Cc1cccnc1)N1CCOc2ccc(C(O)C(c3ccccc3)c3ccccc3)cc2C1 (stereo unspecified) |  | 0.787 |
| Cc1ccc(C)c(C(=O)N2CCC3(CC2)CC3C(=O)NCc2cccc(C)n2)c1 (stereo unspecified) |  | 0.893 |
| COCCN1CCCC2(CCN(C(=O)NCc3ccccc3)C2)C1=O (stereo unspecified) | 0.961 |  |
| CCC(=O)C1CCCN(C(=O)CC2(c3ccccc3C)CC(=O)N(Cc3cccnc3)C2=O)C1 (stereo unspecified) |  | 0.815 |

| Compound | bacterial growth OD600 (polymyxin B 1 µg/mL) | bacterial growth OD600 (polymyxin B 0.75 µg/mL) |
| --- | --- | --- |
| CN1CCCCC1C(=O)NCc1cccnc1N(C)C1CCCCC1 (stereo unspecified) | 0.903 |  |
| Cc1nc(N2CCC(C(=O)NCCC(C)C)CC2)nc2ccccc12 |  | 0.921 |
| COc1ccc(OC)c(-c2cc(Cl)c3c(c2)CC(CNC(=O)Cc2csc(C)n2)O3)c1 (stereo unspecified) |  | 0.562 |
| CCOC(=O)N1CCN(Cc2ccc3c(c2)CN(C(=O)Cn2ccc(C)n2)CCO3)CC1 |  | 0.786 |
| CCOc1ccccc1CN1CCN(Cc2cnn(C)c2C)CC1CCO (stereo unspecified) | 0.884 |  |
| O=C1CC(NS(=O)(=O)N2CCOCC2)CN1Cc1ccc(F)cc1 (stereo unspecified) | 0.921 |  |
| COc1cccc2c1OCCCN(Cc1nc(-c3ccccn3)no1)C2 | 0.935 |  |
| COc1ccc(-n2cc(CNC(CO)CO)c(-c3ccccc3Cl)n2)cc1 | 0.782 |  |
| CCN1CC(CN(C)Cc2nc(-c3ccccc3)no2)CC1=O (stereo unspecified) |  | 0.749 |
| COCCC(=O)N1CCC(Oc2ccc(C(=O)N3CCCO3)cc2)CC1 | 0.908 |  |
| CC(C)NC(=O)CN1CCN(Cc2nc(-c3ccccn3)no2)CC1 | 0.919 |  |
| Cc1cnc(C(=O)NC2CC(=O)N(CCc3ccccc3)C2)cn1 (stereo unspecified) | 1.06 |  |
| CCn1nc(C)c(CN2CCC3(CC2)c2ccccc2[C@@H](NC(=O)c2cccs2)[C@@H]3OC)c1C |  | 0.871 |
| Cc1ncc2c(c1CNC(=O)c1ccc3c(c1)OCO3)CCN(C(=O)C(C)Oc1ccccc1)C2 (stereo unspecified) |  | 0.703 |
| COc1cccc(CN(C)CC2CCCN(CCc3ccccc3F)C2)c1 (stereo unspecified) | 0.714 |  |

As entered above:
For bacterial growth OD600 (polymyxin B 0.75 µg/mL), O=C(Cc1cccnc1)N1CCOc2ccc(C(O)C(c3ccccc3)c3ccccc3)cc2C1 (stereo unspecified) has the entry 0.787
For bacterial growth OD600 (polymyxin B 0.75 µg/mL), Cc1nc(N2CCC(C(=O)NCCC(C)C)CC2)nc2ccccc12 has the entry 0.921
